Assay results published in US20180086837A1.
Results are given in words; binding and its absence hold for the method and conditions named. A result given as binding can be weak or reduced; the word gives no strength.

Columns and labels:
[1] = biological target: human CXCR4 (human); test: radio-ligand displacement on membranes of CXCR4-transfected HEK293 cells; competitor: 75 pM [125I]-CXCL12
[2] = biological target: human CXCR4 (human); test: flow cytometry on THP-1 cells, dose titration, anti-tag detection
[3] = biological target: human CXCR4 (human); test: flow cytometry on MOLM-13 cells, dose titration, anti-tag detection
[4] = biological target: human CXCR4 (human); test: flow cytometry on Jurkat E6.1 cells, dose titration, anti-tag detection
[5] = biological target: human CXCR4 (human); test: flow cytometry competition on THP-1 cells; competitor: anti-CXCR4 mAb 12G5
[6] = biological target: human CXCR4 (human); test: flow cytometry competition on Jurkat cells; competitor: anti-CXCR4 mAb 12G5
[7] = biological target: human CXCR4 (human); test: ELISA on coated hCXCR4 lipoparticles versus null lipoparticles, anti-c-myc + anti-mouse-HRP
[8] = biological target: human CXCR4 (human); test: displacement of biotinylated SDF-1 from CXCR4 on cells, flow cytometry; IC50 drawn as a bar
[9] = biological target: human CXCR4 (human); test: flow cytometry competition on Jurkat cells; competitor: 1 nM anti-CXCR4 mAb 12G5, goat anti-mouse-PE
[10] = biological target: human CXCR4 (human); test: flow cytometry on Jurkat cells, Nanobody at its EC30, anti-myc detection, displaced by rising AMD3100 (small molecule)
[11] = biological target: human CXCR4 (human); test: ELISA on hCXCR4 viral lipoparticles, anti-c-myc detection
[12] = biological target: human CXCR4 (human); test: competition FACS on Hek-CXCR4 cells; competitor: 30 nM biotinylated SDF-1
[13] = biological target: human CXCR4 (human); test: flow cytometry, transfected HEK293T cells

binding [1] | binding [7] | binding [8] | binding [11] | further results | Binder
binds |  |  |  |  | Nanobody 281D4 (VHH) VHH: EVQLVESGGGLVQAGGSLRLSCAASGGTFNNYAMGWFRRAPGKEREFVAAISRSGVRTGVSALYGDSVKDRFTISRDNAKNTLYLQMNKMKPEDTAVYTCAASAIGSGALRRFEYDSSGQGTQVTVSS
binds |  |  |  |  | Nanobody 281A6 (VHH) VHH: EVQLVESGGGLVQTGGSLRLSCAASGGTFNNYAMGWFRRAPGKEREFVAAISRSGVRTGVSALYGDSVKDRFTISRDNAKNTLYLQMNKMKPEDTAVYTCAASAIGSGALRRFEYDSSGQGTQVTVSS
binds | binds | binds |  | binding [2]: binds; binding [3]: binds; binding [4]: binds; binding [5]: binds; binding [6]: binds; binding [9]: binds; binding [10]: binds | Nanobody 281F12 (VHH, not shown: small tags and cut ends) VHH: EVQLVESGGGLVQAGDSLRLSCAASGRAFSRYAMGWFRQAPGKEREFVAAIGWGPSKTNYADSVKGRFTISRDNAKNTVYLQMNTLKPEDTAVYSCAAKFVNTDSTWSRSEMYTYWGQGTQVTVSS
 | binds |  | binds |  | 03F11-25GS-281F12 (bispecific antibody, not shown: small tags and cut ends) EVQLVESGGGSVQPGGSLTLSCGTSGRTFNVMGWFRQAPGKEREFVAAVRWSSTGIYYTQYADSVKSRFTISRDNAKNTVYLEMNSLKPEDTAVYYCAADTYNSNPARWDGYDFRGQGTQVTVSSGGGGSGGGGSGGGGSGGGGSGGGGSEVQLVESGGGLVQAGDSLRLSCAASGRAFSRYAMGWFRQAPGKEREFVAAIGWGPSKTNYADSVKGRFTISRDNAKNTVYLQMNTLKPEDTAVYSCAAKFVNTDSTWSRSEMYTYWGQGTQVTVSS
 | binds |  | binds |  | 281F12-9GS-03F11 (bispecific antibody, not shown: small tags and cut ends) EVQLVESGGGLVQAGDSLRLSCAASGRAFSRYAMGWFRQAPGKEREFVAAIGWGPSKTNYADSVKGRFTISRDNAKNTVYLQMNTLKPEDTAVYSCAAKFVNTDSTWSRSEMYTYWGQGTQVTVSSGGGSGGGGSEVQLVESGGGSVQPGGSLTLSCGTSGRTFNVMGWFRQAPGKEREFVAAVRWSSTGIYYTQYADSVKSRFTISRDNAKNTVYLEMNSLKPEDTAVYYCAADTYNSNPARWDGYDFRGQGTQVTVSS
 | binds |  | binds |  | 281F12-25GS-03F11 (bispecific antibody, not shown: small tags and cut ends) EVQLVESGGGLVQAGDSLRLSCAASGRAFSRYAMGWFRQAPGKEREFVAAIGWGPSKTNYADSVKGRFTISRDNAKNTVYLQMNTLKPEDTAVYSCAAKFVNTDSTWSRSEMYTYWGQGTQVTVSSGGGGSGGGGSGGGGSGGGGSGGGGSEVQLVESGGGSVQPGGSLTLSCGTSGRTFNVMGWFRQAPGKEREFVAAVRWSSTGIYYTQYADSVKSRFTISRDNAKNTVYLEMNSLKPEDTAVYYCAADTYNSNPARWDGYDFRGQGTQVTVSS
 |  | binds |  | binding [12]: binds | Nanobody 10C3 (VHH) VHH: EVQLVESGGGLVQPGGSLRLSCAASGTIFSTSTMGWYSQAPGKQRELVADITFLGSAKYADSVKGRFTISRDKIKNTVYLQMNSLKPEDTAAYYCNARQSTFRGVHYNYWGQGTQVTVSS
 |  | binds |  | binding [13]: binds | Nanobody 15A1 (VHH) VHH: EVQLVESGGGLVQAGGSLRLSCAASGRTFSRAAMGWFRQAPGKEREFVGCALSSAGSALTADSVKGRFTISRDNAKNMVYLQMNNLKPEDTAVYSCVAGGYCTRAGVYPYWGQGTQVTVSS
 |  |  |  | binding [9]: binds; binding [10]: binds | Nanobody 15G11 (VHH) VHH: EVQLVESGGGLVQAGDSLRVSCAASGRTSSYAMAWFRQAPGKEREFVGTISRTNSRTKYADFVEGRFTISRDNAKSTLSLQMTSLKPEDTAVYYCAAKWTGNSYHDYTWSKVDEYNVWGQGTQVTVSS
